In patent US20230055566A1:
These are yes or no findings as the source states them, for the method shown. Binding can be weak; no strength is given.

The chains behind the UniProt entries cited, without tags or fusion partners. Where a name states a change or a piece, a line headed by the entry shows the natural chain unless it says otherwise.
UniProt P21802: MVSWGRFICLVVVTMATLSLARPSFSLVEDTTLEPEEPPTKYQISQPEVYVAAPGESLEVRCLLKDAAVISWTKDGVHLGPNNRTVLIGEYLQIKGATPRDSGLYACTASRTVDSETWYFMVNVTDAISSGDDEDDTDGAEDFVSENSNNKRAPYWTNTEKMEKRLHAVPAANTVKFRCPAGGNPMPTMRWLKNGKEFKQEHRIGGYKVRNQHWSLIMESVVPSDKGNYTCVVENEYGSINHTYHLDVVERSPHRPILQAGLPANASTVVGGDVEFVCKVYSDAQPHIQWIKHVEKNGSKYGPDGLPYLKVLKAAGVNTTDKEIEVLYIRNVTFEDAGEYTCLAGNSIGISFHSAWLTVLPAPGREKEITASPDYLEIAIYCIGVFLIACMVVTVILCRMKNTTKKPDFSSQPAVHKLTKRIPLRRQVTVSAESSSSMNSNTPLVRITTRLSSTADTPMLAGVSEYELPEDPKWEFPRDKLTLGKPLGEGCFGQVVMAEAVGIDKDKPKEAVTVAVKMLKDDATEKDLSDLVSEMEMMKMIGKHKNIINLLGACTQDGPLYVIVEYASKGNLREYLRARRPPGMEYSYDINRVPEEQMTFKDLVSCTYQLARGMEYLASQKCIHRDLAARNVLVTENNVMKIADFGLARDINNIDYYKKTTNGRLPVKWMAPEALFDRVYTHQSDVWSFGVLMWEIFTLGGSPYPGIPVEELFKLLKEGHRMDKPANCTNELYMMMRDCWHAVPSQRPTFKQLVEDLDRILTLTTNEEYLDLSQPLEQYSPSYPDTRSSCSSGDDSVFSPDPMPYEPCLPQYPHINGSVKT

Columns and labels:
[1] = biological target: endogenous FGFR2b on the cell membrane of human gastric cancer cells (KATOIII, SNU16) (human) (UniProt P21802); experiment: flow cytometry on KATOIII cells, anti-human IgG-Alexa488 secondary
[2] = biological target: endogenous FGFR2b on the cell membrane of human gastric cancer cells (KATOIII, SNU16) (human) (UniProt P21802); experiment: flow cytometry on KATOIII cells
[3] = biological target: endogenous FGFR2b on the cell membrane of human gastric cancer cells (KATOIII, SNU16) (human) (UniProt P21802); experiment: confocal microscopy of KATOIII cells incubated with 10 ug/ml Ab 21, Alexa488 secondary
[4] = biological target: endogenous FGFR2b on the cell membrane of human gastric cancer cells (KATOIII, SNU16) (human) (UniProt P21802); experiment: confocal microscopy of KATOIII cells incubated with 10 µg/ml antibody
[5] = biological target: endogenous FGFR2b on the cell membrane of human gastric cancer cells (KATOIII, SNU16) (human) (UniProt P21802); experiment: flow cytometry on FGFR2b expressing KATOIII cells

B1: Ab 21c (antibody, V domains shown)
VH: EVQLHQSGTVLARPGASVKMSCKTSGYTFTNYWMHWIKQRPGQGLEWIGAIYPENGDINYNQKFKGKAKLTAVTSASTAYMDLSSLTNEDSAVYYCTSRGDYWGQGTTLTVSS
VL: QIVLTQSPAIMSASPGEKVTMTCSASSGLSYMSWYQQKPGSSPRLLIYDTSNLASGVPVRFSGSGSGTSYSLTISRMEAEDAATYYCQQWSSYPYTFGGGTKLEIK
[1]
  binding: binds
[2]
  binding: binds

B2: Ab 21 (antibody, V domains shown)
VH: EVQLHQSGTVLARPGASVKMSCKTSGYTFTNYWMHWIKQRPGQGLEWIGAIYPENGDINYNQKFKGKAKLTAVTSASTAYMDLSSLTNEDSAVYYCTSRGDYWGQGTTLTVSS
VL: QIVLTQSPAIMSASPGEKVTMTCSASSGLSYMSWYQQKPGSSPRLLIYDTSNLASGVPVRFSGSGSGTSYSLTISRMEAEDAATYYCQQWSSYPYTFGGGTKLEIK
[3]
  binding: binds
[4]
  binding: binds

B3: Ab hu21-21 (antibody, V domains shown)
VH: EVQLVQSGAEVKKPGASVKVSCKASGYTFTNYWMHWVRQAPGQGLEWMGAIYPENGDINYNQKFKGRVTLTRDTSISTAYMELSRLRSDDTAVYYCTSRGDYWGQGTTVTVSS
VL: AIQLTQSPSSLSASVGDRVTITCSASSGLSYMSWYQQKPGKAPKLLIYDTSNLASGVPSRFSGSGSGTDFTLTISSLQPEDFATYYCQQWSSYPYTFGQGTKLEIK
[5]
  binding: binds

B4: Ab hu21-26 (antibody, human IgG1, V domains shown)
VH: EVQLVQSGAEVKKPGASVKVSCKASGYTFTNYWMHWVRQAPGQGLEWMGAIYPENRDINYNQKFKGRVTLTRDTSISTAYMELSRLRSDDTAVYYCTSRGDYWGQGTTVTVSS
VL: AIQLTQSPSSLSASVGDRVTITCSASSGLSYMSWYQQKPGKAPKLLIYDTSNLASGVPSRFSGSGSGTDFTLTISSLQPEDFATYYCQQWSSYPYTFGQGTKLEIK
[5]
  binding: binds
